Source: the supplement of paper PMC10849652
The list shows a part of the results.

Sequences of proteins named here, by UniProt entry; tags and fusion partners are left off. A change or cut given only in a name is not applied to a line headed by its entry.
UniProt Q9HBL7: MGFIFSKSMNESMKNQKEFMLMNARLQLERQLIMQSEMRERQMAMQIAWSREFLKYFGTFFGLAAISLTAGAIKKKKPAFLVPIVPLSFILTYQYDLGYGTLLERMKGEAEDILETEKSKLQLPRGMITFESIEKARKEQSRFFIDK
UniProt P14859: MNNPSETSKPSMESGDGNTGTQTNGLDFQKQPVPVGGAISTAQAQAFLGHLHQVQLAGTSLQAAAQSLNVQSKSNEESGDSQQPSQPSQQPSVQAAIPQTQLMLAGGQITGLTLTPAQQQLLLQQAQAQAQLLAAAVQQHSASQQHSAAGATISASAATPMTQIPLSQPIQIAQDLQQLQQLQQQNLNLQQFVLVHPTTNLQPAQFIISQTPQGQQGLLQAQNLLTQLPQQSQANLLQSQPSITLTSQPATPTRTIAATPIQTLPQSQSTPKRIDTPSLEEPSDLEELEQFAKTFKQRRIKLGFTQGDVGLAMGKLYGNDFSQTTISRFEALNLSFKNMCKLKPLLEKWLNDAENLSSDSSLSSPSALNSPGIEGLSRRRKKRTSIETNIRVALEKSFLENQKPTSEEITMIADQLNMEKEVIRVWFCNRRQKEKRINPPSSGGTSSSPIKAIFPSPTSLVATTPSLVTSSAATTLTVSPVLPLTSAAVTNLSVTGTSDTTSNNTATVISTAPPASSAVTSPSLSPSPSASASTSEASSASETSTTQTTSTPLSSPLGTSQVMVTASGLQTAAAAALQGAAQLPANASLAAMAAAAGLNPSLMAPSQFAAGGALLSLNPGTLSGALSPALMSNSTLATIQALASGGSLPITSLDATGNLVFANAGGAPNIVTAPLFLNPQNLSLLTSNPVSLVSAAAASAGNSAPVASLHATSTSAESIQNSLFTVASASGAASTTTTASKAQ
UniProt Q92871: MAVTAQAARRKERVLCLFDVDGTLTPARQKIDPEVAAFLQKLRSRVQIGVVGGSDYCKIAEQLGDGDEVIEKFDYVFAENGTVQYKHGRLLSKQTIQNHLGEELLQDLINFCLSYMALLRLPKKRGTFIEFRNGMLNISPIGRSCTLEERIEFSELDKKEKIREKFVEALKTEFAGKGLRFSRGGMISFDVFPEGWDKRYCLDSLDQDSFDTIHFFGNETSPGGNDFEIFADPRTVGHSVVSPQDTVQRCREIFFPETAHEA
UniProt P51805: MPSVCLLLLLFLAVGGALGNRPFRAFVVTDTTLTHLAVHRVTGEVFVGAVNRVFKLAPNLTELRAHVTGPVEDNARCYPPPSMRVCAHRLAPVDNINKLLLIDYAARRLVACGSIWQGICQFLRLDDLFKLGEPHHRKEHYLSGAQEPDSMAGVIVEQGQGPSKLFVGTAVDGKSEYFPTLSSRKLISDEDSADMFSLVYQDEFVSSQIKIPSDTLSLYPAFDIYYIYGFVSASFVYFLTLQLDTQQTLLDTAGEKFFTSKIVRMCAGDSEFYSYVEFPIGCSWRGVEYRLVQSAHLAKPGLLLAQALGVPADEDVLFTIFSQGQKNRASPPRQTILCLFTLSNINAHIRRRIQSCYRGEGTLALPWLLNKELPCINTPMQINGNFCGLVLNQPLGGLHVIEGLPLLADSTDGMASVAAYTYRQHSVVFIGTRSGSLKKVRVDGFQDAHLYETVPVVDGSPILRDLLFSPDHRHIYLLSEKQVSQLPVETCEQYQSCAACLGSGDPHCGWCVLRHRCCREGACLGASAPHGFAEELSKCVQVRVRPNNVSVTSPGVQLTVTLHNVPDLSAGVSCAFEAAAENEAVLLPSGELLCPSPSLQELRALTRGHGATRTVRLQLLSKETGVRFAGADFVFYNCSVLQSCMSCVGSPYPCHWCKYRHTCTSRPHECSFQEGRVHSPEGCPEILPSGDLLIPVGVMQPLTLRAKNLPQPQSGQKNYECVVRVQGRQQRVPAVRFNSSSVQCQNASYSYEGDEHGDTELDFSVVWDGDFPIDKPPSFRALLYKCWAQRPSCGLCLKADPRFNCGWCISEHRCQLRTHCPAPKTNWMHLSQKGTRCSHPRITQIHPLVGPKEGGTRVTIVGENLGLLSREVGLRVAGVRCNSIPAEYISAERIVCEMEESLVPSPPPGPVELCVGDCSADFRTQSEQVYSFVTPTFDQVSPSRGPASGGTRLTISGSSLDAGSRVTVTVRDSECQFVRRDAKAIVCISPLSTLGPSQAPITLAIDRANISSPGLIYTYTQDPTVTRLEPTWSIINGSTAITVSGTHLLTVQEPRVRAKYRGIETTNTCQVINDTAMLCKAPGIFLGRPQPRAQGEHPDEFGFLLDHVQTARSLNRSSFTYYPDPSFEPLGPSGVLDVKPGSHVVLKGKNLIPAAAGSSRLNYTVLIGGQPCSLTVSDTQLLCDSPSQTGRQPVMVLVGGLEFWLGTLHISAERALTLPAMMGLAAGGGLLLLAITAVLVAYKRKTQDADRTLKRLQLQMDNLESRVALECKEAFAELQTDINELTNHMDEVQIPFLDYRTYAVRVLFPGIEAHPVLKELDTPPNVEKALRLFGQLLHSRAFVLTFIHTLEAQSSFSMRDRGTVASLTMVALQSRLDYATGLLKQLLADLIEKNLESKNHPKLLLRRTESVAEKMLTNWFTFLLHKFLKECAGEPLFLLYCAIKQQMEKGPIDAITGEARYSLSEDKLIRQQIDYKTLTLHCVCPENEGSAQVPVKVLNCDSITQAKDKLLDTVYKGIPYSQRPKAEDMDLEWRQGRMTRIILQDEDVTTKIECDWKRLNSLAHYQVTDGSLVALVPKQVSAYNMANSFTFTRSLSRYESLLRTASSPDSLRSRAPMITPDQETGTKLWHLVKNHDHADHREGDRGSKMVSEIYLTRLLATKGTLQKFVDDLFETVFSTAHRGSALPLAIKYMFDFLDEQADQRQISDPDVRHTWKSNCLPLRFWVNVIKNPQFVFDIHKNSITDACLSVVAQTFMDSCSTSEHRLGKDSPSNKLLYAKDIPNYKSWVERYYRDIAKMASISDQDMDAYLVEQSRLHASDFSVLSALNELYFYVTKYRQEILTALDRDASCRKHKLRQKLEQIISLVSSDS
UniProt Q9NW08: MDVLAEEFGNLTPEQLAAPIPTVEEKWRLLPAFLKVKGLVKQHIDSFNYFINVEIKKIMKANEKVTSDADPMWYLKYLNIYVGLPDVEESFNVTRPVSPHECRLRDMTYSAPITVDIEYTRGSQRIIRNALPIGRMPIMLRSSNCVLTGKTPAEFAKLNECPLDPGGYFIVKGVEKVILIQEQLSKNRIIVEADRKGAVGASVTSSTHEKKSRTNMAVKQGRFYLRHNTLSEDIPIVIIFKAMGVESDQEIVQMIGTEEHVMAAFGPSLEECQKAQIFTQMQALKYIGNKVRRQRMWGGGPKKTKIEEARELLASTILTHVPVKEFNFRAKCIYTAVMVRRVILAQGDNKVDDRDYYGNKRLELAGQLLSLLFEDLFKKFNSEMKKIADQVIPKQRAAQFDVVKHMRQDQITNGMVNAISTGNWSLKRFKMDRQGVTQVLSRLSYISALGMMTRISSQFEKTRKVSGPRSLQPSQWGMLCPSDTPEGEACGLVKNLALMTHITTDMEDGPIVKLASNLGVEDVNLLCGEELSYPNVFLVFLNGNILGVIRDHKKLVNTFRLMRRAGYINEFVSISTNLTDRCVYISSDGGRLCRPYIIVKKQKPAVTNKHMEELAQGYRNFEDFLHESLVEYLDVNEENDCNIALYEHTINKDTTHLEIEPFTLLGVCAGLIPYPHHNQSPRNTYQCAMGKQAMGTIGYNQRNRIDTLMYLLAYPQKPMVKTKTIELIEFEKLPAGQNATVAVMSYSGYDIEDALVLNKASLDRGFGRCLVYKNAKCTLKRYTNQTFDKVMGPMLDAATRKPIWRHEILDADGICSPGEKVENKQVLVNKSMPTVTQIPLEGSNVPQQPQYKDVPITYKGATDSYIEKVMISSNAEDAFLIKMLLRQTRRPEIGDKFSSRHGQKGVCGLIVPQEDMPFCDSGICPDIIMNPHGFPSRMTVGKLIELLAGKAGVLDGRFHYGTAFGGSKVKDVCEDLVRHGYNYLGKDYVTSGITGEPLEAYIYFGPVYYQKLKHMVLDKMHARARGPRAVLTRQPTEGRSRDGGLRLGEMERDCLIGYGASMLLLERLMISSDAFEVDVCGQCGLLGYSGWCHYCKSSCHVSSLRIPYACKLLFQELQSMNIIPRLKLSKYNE
UniProt Q9Y244: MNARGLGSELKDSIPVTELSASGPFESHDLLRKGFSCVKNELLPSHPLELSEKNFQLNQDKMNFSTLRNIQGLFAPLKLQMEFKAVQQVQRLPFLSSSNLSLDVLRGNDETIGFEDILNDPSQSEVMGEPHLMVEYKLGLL
UniProt Q6P1K2: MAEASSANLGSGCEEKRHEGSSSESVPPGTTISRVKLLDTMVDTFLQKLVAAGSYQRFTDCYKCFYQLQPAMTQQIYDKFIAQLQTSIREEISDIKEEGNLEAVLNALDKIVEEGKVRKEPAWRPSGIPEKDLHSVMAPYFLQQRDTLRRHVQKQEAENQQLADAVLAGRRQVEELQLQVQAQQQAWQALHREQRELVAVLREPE
UniProt Q9HAB8: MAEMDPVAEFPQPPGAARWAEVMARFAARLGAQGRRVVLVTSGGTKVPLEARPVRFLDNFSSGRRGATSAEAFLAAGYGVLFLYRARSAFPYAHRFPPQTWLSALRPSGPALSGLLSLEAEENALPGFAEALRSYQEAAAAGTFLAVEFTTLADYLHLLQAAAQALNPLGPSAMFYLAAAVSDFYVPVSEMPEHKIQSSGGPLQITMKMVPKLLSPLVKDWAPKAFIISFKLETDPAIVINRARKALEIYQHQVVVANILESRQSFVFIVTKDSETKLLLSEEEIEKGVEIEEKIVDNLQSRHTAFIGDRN
UniProt O95602, whole entry, looked up: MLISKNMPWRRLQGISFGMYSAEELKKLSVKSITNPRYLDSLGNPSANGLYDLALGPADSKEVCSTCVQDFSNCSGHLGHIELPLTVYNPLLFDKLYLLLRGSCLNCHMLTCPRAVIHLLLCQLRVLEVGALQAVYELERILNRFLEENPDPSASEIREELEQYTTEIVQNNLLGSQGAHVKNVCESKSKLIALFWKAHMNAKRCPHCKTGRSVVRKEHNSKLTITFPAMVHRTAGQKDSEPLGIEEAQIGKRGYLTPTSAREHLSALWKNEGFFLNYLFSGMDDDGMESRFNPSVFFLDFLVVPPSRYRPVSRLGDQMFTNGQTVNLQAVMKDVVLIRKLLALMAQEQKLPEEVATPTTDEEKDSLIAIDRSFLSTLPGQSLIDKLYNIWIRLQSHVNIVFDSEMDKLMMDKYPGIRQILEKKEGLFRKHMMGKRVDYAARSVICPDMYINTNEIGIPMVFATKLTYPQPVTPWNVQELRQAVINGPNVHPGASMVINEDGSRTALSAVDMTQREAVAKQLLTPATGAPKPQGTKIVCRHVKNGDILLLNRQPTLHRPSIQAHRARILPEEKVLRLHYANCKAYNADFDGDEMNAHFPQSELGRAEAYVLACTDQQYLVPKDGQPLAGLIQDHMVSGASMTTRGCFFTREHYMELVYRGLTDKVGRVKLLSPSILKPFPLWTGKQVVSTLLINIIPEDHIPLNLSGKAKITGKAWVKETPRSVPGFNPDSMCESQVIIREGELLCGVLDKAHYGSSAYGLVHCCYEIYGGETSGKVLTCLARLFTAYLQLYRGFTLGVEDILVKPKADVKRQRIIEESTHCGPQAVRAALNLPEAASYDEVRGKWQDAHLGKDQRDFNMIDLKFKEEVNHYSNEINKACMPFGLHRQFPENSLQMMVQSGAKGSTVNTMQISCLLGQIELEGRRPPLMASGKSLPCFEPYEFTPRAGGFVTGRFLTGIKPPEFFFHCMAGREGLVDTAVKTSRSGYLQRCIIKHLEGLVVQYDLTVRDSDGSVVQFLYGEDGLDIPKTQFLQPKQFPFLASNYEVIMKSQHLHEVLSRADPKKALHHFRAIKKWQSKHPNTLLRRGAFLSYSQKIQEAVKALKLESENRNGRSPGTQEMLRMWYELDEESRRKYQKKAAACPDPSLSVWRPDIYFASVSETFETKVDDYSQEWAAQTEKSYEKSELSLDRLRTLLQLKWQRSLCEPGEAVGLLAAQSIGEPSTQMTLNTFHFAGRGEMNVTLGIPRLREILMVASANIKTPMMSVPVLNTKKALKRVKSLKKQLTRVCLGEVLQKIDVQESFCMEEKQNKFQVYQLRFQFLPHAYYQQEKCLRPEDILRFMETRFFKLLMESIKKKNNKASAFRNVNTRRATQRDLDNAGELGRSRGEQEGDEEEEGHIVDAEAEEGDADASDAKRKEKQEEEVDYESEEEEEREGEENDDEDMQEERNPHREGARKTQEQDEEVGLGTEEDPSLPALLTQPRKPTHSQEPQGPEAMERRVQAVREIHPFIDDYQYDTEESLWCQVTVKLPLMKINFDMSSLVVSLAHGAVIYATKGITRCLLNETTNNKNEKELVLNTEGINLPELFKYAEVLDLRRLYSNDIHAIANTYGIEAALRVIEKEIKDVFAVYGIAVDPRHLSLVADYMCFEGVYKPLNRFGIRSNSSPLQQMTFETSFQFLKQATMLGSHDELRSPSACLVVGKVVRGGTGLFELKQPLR

Compound: C#Cc1cccc(Nc2ncnc3cc(OCCOC)c(OCCOC)cc23)c1 [erlotinib]
Experiment: log2 fold change, soluble protein after heating vs DMSO (PISA); higher = thermal stabilisation; K562 lysate, 10 uM; active = over 0.2 and 3.5 SD of the protein, either way, in both replicates (recomputed)
How it was run: (§1)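 Quantification was by TMTpro 16plex LC-MS/MS with equalised channel sums, applied to the supernatant after 21,000xg for 90 min. Samples were crude K562 extract at 1 mg/mL protein in PBS pH 7.4 with 1 mM MgCl2, treated with 10 μM compound for 30 min, heated for 3 min across 48°C-58°C, pooled and brought to 0.5% NP-40 at 4°C. Values are log-two fold changes in thermal stability relative to solvent controls, from duplicates.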

log2 fold change, inactive:
PLEKHM2 (UniProt Q8IWE5) 0.017
PPAN isoform 3 (UniProt Q9NQ55) -0.012
POTEF (UniProt A5A3E0) -0.006
POLE3 (UniProt Q9NRF9) -0.009
PLGRKT (UniProt Q9HBL7) 0.029
POGLUT3 (UniProt Q7Z4H8) 0.023
POMGNT1 isoform 2 (UniProt Q8WZA1) -0.048
PMPCB (UniProt O75439) -0.034
POLR3K (UniProt Q9Y2Y1) 0.005
PNN (UniProt Q9H307) -0.023
POU2F1 isoform 6 (UniProt P14859) -0.01
PMM1 (UniProt Q92871) 0.022
PMPCA (UniProt Q10713) -0.034
POLR3C (UniProt Q9BUI4) 0.006
PNPLA8 (UniProt Q9NP80) 0.03
PLXNA3 (UniProt P51805) 0.223
POLD3 (UniProt Q15054) 0.015
PPID (UniProt Q08752) -0.017
PNISR (UniProt Q8TF01) -0.006
POP1 (UniProt Q99575) -0.023
POLR3F (UniProt Q9H1D9) -0.029
PMS2 (UniProt P54278) 0.036
POLR2H (UniProt P52434) 0.022
PPIA (UniProt P62937) -0.042
POLR3B (UniProt Q9NW08) 0.019
POGLUT1 (UniProt Q8NBL1) -0.009
POMP (UniProt Q9Y244) 0.058
PLOD1 (UniProt Q02809) -0.016
POLE4 (UniProt Q9NR33) -0.024
POLR2A, A0A590UJN4 0.013
PPFIA2 (UniProt O75334) 0.019
POLR1D (UniProt P0DPB6) 0.029
PNPT1 (UniProt Q8TCS8) -0.007
PODXL2 (UniProt Q9NZ53) 0.027
POLR3D (UniProt P05423) 0.136
POM121 (UniProt Q96HA1) -0.012
PMF1 (UniProt Q6P1K2) -0.013
PPCS (UniProt Q9HAB8) -0.03
POLR1A (UniProt O95602) 0.086

Compound: C/C(=N\NC(=O)C1=CC(=CC=C1)S(=O)(=O)N2CCOCC2)/C3=C(C=CC(=C3)Cl)O
Experiment: as above
How it was run: as §1

log2 fold change, inactive:
PLEKHM2 (UniProt Q8IWE5) 0.045
PPAN isoform 3 (UniProt Q9NQ55) -0.112
POTEF (UniProt A5A3E0) 0.029
POLE3 (UniProt Q9NRF9) 0.014
PLGRKT (UniProt Q9HBL7) 0.086
POGLUT3 (UniProt Q7Z4H8) -0.044
POMGNT1 isoform 2 (UniProt Q8WZA1) 0.001
PMPCB (UniProt O75439) 0.013
POLR3K (UniProt Q9Y2Y1) 0.01
PNN (UniProt Q9H307) 0.003
POU2F1 isoform 6 (UniProt P14859) -0.045
PMM1 (UniProt Q92871) 0.051
PMPCA (UniProt Q10713) -0.012
POLR3C (UniProt Q9BUI4) 0.049
PNPLA8 (UniProt Q9NP80) 0.156
PLXNA3 (UniProt P51805) -0.276
POLD3 (UniProt Q15054) 0.002
PPID (UniProt Q08752) -0.034
PNISR (UniProt Q8TF01) -0.078
POP1 (UniProt Q99575) -0.05
POLR3F (UniProt Q9H1D9) -0.05
PMS2 (UniProt P54278) 0.012
POLR2H (UniProt P52434) -0.007
PPIA (UniProt P62937) -0.086
POLR3B (UniProt Q9NW08) 0.016
POGLUT1 (UniProt Q8NBL1) 0.005
POMP (UniProt Q9Y244) -0.022
PLOD1 (UniProt Q02809) 0.005
POLE4 (UniProt Q9NR33) -0.319
POLR2A, A0A590UJN4 0.001
PPFIA2 (UniProt O75334) -0.005
POLR1D (UniProt P0DPB6) 0.053
PNPT1 (UniProt Q8TCS8) -0.034
PODXL2 (UniProt Q9NZ53) -0.243
POLR3D (UniProt P05423) -0.023
POM121 (UniProt Q96HA1) -0.029
PMF1 (UniProt Q6P1K2) -0.044
PPCS (UniProt Q9HAB8) -0.108
POLR1A (UniProt O95602) 0.003
